From PMC6650555

Sequences of proteins named here, by UniProt entry; tags and fusion partners are left off. A change or cut given only in a name is not applied to a line headed by its entry.
UniProt Q16666: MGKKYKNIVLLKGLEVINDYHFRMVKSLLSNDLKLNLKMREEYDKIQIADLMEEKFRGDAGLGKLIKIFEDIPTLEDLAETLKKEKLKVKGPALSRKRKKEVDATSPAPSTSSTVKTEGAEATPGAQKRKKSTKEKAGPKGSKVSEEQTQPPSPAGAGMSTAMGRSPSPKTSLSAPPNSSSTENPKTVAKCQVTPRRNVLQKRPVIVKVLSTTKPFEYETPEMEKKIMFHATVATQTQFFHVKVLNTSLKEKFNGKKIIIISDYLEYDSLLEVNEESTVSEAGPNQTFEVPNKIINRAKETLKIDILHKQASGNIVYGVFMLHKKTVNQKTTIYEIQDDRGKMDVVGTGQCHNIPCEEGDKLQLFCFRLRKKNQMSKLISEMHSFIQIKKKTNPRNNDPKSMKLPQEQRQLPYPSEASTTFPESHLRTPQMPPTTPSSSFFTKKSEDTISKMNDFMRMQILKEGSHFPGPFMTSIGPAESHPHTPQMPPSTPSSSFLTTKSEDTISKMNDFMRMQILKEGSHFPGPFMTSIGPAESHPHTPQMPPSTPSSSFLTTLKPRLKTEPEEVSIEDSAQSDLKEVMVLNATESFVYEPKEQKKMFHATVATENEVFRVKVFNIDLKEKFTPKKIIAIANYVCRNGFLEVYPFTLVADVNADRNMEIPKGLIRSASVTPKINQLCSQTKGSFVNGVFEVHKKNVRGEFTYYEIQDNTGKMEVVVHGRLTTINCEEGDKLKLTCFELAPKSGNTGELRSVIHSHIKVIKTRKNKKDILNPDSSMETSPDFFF
UniProt Q9UER7: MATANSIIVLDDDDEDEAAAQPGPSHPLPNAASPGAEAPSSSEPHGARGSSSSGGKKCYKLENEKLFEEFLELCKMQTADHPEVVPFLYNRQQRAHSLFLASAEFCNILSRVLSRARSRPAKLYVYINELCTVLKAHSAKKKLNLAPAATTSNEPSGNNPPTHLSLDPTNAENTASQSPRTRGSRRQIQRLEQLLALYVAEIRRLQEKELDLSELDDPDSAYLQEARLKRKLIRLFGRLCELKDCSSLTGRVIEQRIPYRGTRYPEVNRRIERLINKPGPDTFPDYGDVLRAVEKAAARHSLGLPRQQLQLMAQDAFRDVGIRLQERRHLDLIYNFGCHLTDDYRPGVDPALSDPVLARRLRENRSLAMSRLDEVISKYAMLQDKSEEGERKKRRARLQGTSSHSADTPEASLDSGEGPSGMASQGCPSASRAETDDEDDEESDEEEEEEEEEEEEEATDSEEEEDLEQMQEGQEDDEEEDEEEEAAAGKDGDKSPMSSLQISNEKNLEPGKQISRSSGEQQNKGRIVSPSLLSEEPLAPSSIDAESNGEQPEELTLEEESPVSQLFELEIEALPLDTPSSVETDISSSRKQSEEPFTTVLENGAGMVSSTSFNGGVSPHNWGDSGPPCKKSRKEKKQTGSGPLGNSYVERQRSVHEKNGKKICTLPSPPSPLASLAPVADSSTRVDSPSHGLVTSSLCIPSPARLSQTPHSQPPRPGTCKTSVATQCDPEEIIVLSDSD
UniProt P29590: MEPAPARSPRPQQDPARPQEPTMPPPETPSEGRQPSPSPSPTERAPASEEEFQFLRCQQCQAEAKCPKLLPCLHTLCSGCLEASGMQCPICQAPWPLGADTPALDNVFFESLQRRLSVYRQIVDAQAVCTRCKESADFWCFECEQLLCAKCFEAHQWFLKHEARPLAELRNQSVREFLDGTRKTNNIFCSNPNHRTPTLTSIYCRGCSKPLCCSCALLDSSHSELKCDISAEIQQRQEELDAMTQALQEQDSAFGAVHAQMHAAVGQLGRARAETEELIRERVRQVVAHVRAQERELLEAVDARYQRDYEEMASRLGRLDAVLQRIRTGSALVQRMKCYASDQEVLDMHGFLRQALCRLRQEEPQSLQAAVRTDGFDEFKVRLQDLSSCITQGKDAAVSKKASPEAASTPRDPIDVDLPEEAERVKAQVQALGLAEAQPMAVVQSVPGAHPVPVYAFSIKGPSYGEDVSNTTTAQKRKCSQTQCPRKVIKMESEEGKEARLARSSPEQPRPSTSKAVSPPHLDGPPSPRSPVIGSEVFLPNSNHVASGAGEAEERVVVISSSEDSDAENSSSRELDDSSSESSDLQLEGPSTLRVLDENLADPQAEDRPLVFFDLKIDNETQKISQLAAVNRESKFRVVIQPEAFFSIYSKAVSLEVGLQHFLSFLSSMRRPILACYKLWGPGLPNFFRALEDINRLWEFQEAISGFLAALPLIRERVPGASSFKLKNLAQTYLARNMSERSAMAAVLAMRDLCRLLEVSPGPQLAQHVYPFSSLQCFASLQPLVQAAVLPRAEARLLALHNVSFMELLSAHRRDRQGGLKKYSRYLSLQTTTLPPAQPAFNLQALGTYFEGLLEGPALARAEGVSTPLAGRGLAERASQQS

Target: CRISPR-resistant full-length IFI16-GFP R23K (UniProt Q16666)
Test: affinity purification with mass spectrometry; HFFs lacking endogenous IFI16 and stably expressing CRISPR-resistant IFI16-GFP constructs, infected with ICP0-RF HSV-1 (6 hpi, MOI of 10); GFP IP; targeted MS/MS (PRM) of proteotypic peptides, relative to the WT IFI16 IP and normalized by IFI16 …

binding	Substance
binds	DAXX (from UniProt Q9UER7 1-740)
binds	PML (from UniProt P29590 1-882)

These are yes or no findings as the source states them, for the method shown. Binding seen in cells or lysates may run through a third protein. These calls come from enrichment with a bait or labelling near it, and not all partners need be listed.
